{"source": "paper PMC7935978", "molecular_target": "GFP-FUS-Gal4 (UniProt P04386)", "assay": "EMSA", "settings": "40 mM Tris-HCl pH 7.5, 150 mM KCl, 2 mM MgCl2, 1 mM DTT, 0.2 mg/ml BSA; EMSA 30 min at room temperature; recombinant protein; protein details: 7xHis, sfGFP(A206K); label: 5' Quasar 670", "note": "For at least one entry, the source does not settle the construct or the ends of the probe. At least one verdict rests on a figure or table, not on a statement of the authors."}
{"sequence": "ATATCGGAGGACAGTCCTCCGAATA (double strand) [1x Gal4DBD binding site 25-bp]", "values": [{"measurement": "binding result", "result": "binds"}]}
